Here are results for 2 substances from PMC11626796.

Sequences of proteins named here, by UniProt entry; tags and fusion partners are left off. A change or cut given only in a name is not applied to a line headed by its entry. A line that says so, or that is headed by a name, gives the form on record, which may keep a tag or linker. Residues count along the entry.
UniProt P51884, residues 19-338: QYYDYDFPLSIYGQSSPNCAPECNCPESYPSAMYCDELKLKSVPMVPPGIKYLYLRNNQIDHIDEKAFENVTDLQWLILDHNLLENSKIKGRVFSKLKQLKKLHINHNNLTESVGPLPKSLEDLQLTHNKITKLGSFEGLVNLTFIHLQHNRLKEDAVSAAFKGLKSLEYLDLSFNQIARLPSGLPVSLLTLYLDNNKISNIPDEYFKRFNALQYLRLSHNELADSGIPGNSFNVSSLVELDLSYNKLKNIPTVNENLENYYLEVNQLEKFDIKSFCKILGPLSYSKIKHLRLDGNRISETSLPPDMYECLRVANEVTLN
UniProt P21793, residues 31-360: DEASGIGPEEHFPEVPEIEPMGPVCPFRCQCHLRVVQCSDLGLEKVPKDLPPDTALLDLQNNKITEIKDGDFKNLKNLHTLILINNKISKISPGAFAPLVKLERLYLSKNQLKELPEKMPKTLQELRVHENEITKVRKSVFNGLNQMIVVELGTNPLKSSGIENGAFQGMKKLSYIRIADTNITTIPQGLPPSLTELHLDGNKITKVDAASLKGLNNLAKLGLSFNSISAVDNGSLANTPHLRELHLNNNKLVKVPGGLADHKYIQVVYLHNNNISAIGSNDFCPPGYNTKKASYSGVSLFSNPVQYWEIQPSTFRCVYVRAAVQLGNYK
UniProt P02454: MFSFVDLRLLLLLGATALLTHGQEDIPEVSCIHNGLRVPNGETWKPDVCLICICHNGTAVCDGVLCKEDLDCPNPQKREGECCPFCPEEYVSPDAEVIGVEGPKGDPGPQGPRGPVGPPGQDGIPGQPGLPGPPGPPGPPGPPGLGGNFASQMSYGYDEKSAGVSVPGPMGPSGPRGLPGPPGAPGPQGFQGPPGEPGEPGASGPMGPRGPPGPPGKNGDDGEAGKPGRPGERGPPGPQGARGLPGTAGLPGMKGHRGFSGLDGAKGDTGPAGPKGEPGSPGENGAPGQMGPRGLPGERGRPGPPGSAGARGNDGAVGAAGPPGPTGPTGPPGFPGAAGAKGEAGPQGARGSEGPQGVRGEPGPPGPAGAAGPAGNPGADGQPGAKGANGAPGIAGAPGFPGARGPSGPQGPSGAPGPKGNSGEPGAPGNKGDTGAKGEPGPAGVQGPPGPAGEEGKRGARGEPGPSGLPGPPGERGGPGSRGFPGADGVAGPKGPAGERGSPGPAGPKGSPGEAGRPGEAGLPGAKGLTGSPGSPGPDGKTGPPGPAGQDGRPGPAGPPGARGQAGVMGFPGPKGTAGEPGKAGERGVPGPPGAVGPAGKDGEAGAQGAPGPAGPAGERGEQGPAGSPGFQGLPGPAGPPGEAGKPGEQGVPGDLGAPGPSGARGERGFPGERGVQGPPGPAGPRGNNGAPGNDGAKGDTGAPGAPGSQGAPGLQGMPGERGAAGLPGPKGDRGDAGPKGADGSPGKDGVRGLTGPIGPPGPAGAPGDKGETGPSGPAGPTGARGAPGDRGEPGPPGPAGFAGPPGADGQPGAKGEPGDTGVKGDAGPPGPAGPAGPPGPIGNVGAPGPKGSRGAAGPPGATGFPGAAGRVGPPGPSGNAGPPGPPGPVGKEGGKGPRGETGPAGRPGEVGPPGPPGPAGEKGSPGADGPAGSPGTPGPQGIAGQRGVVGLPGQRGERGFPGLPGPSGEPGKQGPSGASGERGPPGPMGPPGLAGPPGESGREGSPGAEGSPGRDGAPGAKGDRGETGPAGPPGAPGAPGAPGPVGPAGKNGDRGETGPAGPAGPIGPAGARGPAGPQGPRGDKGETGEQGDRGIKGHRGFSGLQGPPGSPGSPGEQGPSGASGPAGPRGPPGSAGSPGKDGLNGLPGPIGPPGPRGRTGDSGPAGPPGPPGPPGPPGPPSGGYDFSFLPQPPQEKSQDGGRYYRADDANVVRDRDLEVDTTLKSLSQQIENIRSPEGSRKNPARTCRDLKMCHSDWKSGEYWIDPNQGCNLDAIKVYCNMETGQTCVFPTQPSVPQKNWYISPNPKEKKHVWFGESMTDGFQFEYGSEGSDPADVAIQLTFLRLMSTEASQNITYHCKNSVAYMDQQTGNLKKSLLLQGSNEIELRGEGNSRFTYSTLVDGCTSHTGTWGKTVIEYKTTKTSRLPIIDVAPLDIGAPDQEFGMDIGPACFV
UniProt P02466: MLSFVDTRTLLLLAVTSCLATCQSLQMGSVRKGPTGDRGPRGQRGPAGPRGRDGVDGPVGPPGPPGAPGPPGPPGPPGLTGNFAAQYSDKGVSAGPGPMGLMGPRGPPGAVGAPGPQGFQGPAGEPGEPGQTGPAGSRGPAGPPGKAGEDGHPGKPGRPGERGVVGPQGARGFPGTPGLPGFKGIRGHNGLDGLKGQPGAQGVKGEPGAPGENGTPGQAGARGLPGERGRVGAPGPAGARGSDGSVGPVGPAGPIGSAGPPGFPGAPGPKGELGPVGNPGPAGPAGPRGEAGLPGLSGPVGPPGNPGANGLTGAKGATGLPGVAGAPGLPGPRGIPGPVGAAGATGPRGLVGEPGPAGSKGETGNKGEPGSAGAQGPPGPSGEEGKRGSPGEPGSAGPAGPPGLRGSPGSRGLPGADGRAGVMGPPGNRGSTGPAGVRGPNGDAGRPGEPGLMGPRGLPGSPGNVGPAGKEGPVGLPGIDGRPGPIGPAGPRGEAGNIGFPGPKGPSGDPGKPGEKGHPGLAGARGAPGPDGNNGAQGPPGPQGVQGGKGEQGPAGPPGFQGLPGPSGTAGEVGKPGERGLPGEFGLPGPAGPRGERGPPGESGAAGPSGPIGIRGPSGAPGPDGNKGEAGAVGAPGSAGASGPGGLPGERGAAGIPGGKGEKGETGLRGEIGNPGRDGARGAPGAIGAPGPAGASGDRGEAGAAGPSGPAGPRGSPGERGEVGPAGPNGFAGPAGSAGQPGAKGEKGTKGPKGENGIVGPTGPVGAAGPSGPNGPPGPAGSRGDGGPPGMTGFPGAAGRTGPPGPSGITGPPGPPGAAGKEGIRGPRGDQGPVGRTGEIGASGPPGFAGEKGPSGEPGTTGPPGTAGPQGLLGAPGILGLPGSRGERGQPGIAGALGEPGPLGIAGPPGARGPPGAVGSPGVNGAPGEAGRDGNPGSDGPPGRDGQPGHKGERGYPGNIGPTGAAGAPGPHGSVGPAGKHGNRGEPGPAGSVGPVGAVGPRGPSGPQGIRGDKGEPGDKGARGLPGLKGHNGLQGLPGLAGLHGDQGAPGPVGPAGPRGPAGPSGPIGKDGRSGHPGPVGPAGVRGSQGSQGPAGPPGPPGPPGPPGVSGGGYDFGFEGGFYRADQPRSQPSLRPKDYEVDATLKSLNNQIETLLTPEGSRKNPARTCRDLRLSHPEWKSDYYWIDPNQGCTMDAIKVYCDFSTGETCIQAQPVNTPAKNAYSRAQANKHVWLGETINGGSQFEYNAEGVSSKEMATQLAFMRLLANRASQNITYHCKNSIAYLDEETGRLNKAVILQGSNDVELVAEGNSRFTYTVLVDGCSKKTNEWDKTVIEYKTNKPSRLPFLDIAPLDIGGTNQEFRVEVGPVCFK
Recombinant human versican isoform V3 (P13611-4, form named): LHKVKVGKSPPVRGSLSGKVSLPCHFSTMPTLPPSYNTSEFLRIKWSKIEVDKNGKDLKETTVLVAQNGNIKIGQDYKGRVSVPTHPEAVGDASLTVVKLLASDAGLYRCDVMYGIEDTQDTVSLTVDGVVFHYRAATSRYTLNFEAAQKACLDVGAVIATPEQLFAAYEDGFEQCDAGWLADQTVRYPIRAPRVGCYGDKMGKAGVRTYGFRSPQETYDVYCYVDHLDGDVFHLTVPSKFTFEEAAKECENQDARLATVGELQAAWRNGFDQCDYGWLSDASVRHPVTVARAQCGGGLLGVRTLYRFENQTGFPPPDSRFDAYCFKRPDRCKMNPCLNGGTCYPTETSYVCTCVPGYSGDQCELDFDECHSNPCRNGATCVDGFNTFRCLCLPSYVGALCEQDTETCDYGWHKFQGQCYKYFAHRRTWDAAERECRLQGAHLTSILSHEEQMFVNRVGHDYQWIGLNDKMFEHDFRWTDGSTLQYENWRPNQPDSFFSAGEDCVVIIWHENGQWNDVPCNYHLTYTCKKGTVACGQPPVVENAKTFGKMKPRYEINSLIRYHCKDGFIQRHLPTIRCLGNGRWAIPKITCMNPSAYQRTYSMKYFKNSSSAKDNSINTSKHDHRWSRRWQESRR

The target of assay [1] is Recombinant human lumican (human) (UniProt P51884). As to the kind of experiment: ELISA; solid-phase binding assay: proteoglycan or versican domain coated on a 96-well plate (0.25 ug/ml; 0.05-1 ug/ml in Fig. 2A) at 4 C overnight, blocked with 3% BSA in TTBS or casein; rat tail type I collagen 0.1-5 ug/ml in 1% BSA/PBS overnight at RT; detected with biotin-conjugated anti-collagen I antibody, streptavidin-HRP and TMB; Kd from Scatchard plot; both purified. (ELISA stands for enzyme-linked immunosorbent assay.)

Assay [2] has as its target Decorin isolated from bovine cartilage (bovine) (UniProt P21793). The description is as above.
The target of assay [3] is Rat tail type I telo-collagen (rat) (UniProt P02454+P02466). As to the kind of experiment: ELISA; solid-phase binding assay: CLC II peptides (or full-length collagen as positive control) coated on plates, blocked with casein; 10 ug/ml recombinant V3 or G3 incubated overnight; detected with anti-His antibody (HRP) and TMB; normalised to full-length collagen; both purified.

No constants are given. Whether binding was seen depends on the method and setting. Some entries that bind do so weakly or less than the wild type.

Consider “Rat tail type I telo-collagen (from UniProt P02454 152-1207; P02466 86-1125) (complex)”, for which the binding entry in assay [1] and in assay [2] was “binds” each time.

On to “Recombinant human versican isoform V3 (from UniProt P13611-4 21-655)”, for which, in assay [3], the binding entry is on record as “binds”.
